± gives the standard deviation of the averaged measurements. Some of the results follow. Values are raw readings; no control value is given beside them.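 The test system is a mixed culture of neurons, microglia and astrocytes in which bacterial LPS triggers microglia-driven neuron loss, modelling inflammatory neurodegeneration. Each compound was compared with vehicle (DMSO) wells on the same plates, and the SYK inhibitor BAY61-3606 served as the reference neuroprotective control.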

The subject of one assay is rat primary cerebellar neuron-glia coculture. In words: necrotic cell count (DRAQ7+) per image field (cells per field); higher = more necrosis. Particulars: LPS 0 ng/mL; 1 µM; treatment time 3 days. How it is done: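 Primary rat (P3-7) cerebellar neuron-glia cocultures in 384-well plates were treated at DIV7 with 1 uM compound, then with or without 100 ng/mL LPS 30 min later, for 3 days. At DIV10 live cells were stained with Hoechst 33342, NeuO (live neurons), IB4-AF594 (microglia) and DRAQ7 (necrotic cells) and imaged at 10x (4 fields per well, IN Cell Analyzer 6000). Cells were classified with Cellpose/CellProfiler plus a Random Trees classifier. Values are per-well mean counts per image field (raw, not min-max normalised) and the median microglial FormFactor per image. Three technical replicates per repeat across 4 biological repeats; DMSO and BAY61-3606 serve as controls.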
Turning to `O=C(Nc1cccnc1)c1ccc(Cl)cc1`, the necrotic cell count worked out at 84.8 ± 32.
`C[C@]12C=CC(=O)C=C1CC[C@H]1[C@@H]3C[C@@H](O)[C@](O)(C(=O)CO)[C@@]3(C)C[C@H](O)[C@@]12F` displayed a necrotic cell count of 298 ± 110.
The same measure, in the same setting: in the case of `CC(C)(C)c1cc(C(=O)Cn2c(=N)n(CCN3CCOCC3)c3ccccc32)cc(C(C)(C)C)c1O` it was 77.5 ± 24; in that of `O=c1[nH]c(=O)n([C@H]2C[C@H](O)[C@@H](CO)O2)cc1F`, 108 ± 50; in that of `COc1ccc(NC(=O)c2ccc(-c3ccc(-c4nnc(C)o4)cc3C)cc2)cc1N1CCN(C)CC1`, 56.5 ± 24.
Same read-out and setting: the same measure for `CCCCCCCCCCCCC/C=C/[C@@H](O)[C@@H](N)COP(=O)(O)O`: 86.2 ± 25; for `CC[C@H]1[C@@H](O)[C@@H]2[C@H](CC[C@]3(C)[C@@H]([C@H](C)CCC(=O)O)CC[C@@H]23)[C@@]2(C)CC[C@@H](O)C[C@@H]12`: 73.4 ± 17; for `CC(=O)N1C(=O)C(=O)c2ccccc21`: 92.1 ± 33.
Still for that read-out and setting: the same measure for `Cc1ccsc1C(=CCCN1CCC[C@@H](C(=O)O)C1)c1sccc1C`: 88.8 ± 30; for `CC(C)(C#N)c1cc(Cn2cncn2)cc(C(C)(C)C#N)c1`: 248 ± 60; for `O=C1Nc2ccc(I)cc2/C1=C/c1cc(Br)c(O)c(Br)c1`: 96.7 ± 31.
In the case of `CO/C(O)=C1\C(C)=NC(C)=C(C(=O)O[C@H]2CCN(Cc3ccccc3)C2)[C@H]1c1cccc([N+](=O)[O-])c1`, the necrotic cell count worked out at 58 ± 27.
`CN(C(=O)CCCOc1ccc2[nH]c(=O)ccc2c1)C1CCCCC1` displayed a necrotic cell count of 102 ± 32.
Still for that read-out and setting: in the case of `COc1cc(OC2CCN(C)CC2)ccc1Nc1ncc2c(n1)n(C1CCCC1)c(=O)n2C` it was 83.4 ± 33.
On the same count and under the same terms, in the case of `NC(=O)c1ccc(-c2nc(-c3ccccn3)c(-c3ccc4c(c3)OCO4)[nH]2)cc1` it was 88.7 ± 32; in that of `CCc1nc(N)nc(N)c1-c1ccc(Cl)cc1`, 221 ± 63; in that of `Cc1cncn1CCCn1c(=S)[nH]c2ccccc2c1=O`, 94.4 ± 41.
Same read-out and setting: in the case of `Clc1ccc(CNc2nc3ccccc3[nH]2)cc1Cl` it was 65.7 ± 27; in that of `O=C(Nc1cc(C2CC2)[nH]n1)c1ccc(Br)cc1`, 74.2 ± 29; in that of `O=C(Nc1nnn[nH]1)NC1CCCCC1`, 96.7 ± 43.

Still in this assay, the particulars now being: LPS 100 ng/mL; 1 µM; treatment time 3 days.
As to `O=C(Nc1cccnc1)c1ccc(Cl)cc1`, the necrotic cell count amounted to 994 ± 440.
Still for that read-out and setting: in the case of `C[C@]12C=CC(=O)C=C1CC[C@H]1[C@@H]3C[C@@H](O)[C@](O)(C(=O)CO)[C@@]3(C)C[C@H](O)[C@@]12F` it was 210 ± 49; in that of `CC(C)(C)c1cc(C(=O)Cn2c(=N)n(CCN3CCOCC3)c3ccccc32)cc(C(C)(C)C)c1O`, 904 ± 360; in that of `O=c1[nH]c(=O)n([C@H]2C[C@H](O)[C@@H](CO)O2)cc1F`, 702 ± 200.
Still for that read-out and setting: the same measure for `COc1ccc(NC(=O)c2ccc(-c3ccc(-c4nnc(C)o4)cc3C)cc2)cc1N1CCN(C)CC1`: 820 ± 530; for `CCCCCCCCCCCCC/C=C/[C@@H](O)[C@@H](N)COP(=O)(O)O`: 819 ± 260.
The same measure, in the same setting: the same measure for `CC[C@H]1[C@@H](O)[C@@H]2[C@H](CC[C@]3(C)[C@@H]([C@H](C)CCC(=O)O)CC[C@@H]23)[C@@]2(C)CC[C@@H](O)C[C@@H]12`: 1030 ± 270.
`CC(=O)N1C(=O)C(=O)c2ccccc21` yielded a necrotic cell count of 948 ± 250.
In turn, `Cc1ccsc1C(=CCCN1CCC[C@@H](C(=O)O)C1)c1sccc1C` showed a necrotic cell count of 720 ± 270.
On the same count and under the same terms, the same measure for `CC(C)(C#N)c1cc(Cn2cncn2)cc(C(C)(C)C#N)c1`: 175 ± 58.
On the same count and under the same terms, in the case of `O=C1Nc2ccc(I)cc2/C1=C/c1cc(Br)c(O)c(Br)c1` it was 1000 ± 320; in that of `CO/C(O)=C1\C(C)=NC(C)=C(C(=O)O[C@H]2CCN(Cc3ccccc3)C2)[C@H]1c1cccc([N+](=O)[O-])c1`, 880 ± 350; in that of `CN(C(=O)CCCOc1ccc2[nH]c(=O)ccc2c1)C1CCCCC1`, 841 ± 500.
The same measure, in the same setting: in the case of `COc1cc(OC2CCN(C)CC2)ccc1Nc1ncc2c(n1)n(C1CCCC1)c(=O)n2C` it was 1050 ± 270; in that of `NC(=O)c1ccc(-c2nc(-c3ccccn3)c(-c3ccc4c(c3)OCO4)[nH]2)cc1`, 1460 ± 360.
For `CCc1nc(N)nc(N)c1-c1ccc(Cl)cc1`, the necrotic cell count stood at 172 ± 53.
Same read-out and setting: in the case of `Cc1cncn1CCCn1c(=S)[nH]c2ccccc2c1=O` it was 1130 ± 300.
The same measure, in the same setting: in the case of `Clc1ccc(CNc2nc3ccccc3[nH]2)cc1Cl` it was 804 ± 340.
Same read-out and setting: the same measure for `O=C(Nc1cc(C2CC2)[nH]n1)c1ccc(Br)cc1`: 959 ± 320; for `O=C(Nc1nnn[nH]1)NC1CCCCC1`: 988 ± 410.

The values above are taken from the supplement of paper PMC10973195.
